In paper PMC9282853:
These are yes or no findings as the source states them, for the method shown. In cells and extracts the contact can be indirect. These calls come from enrichment with a bait or labelling near it, and not all partners need be listed. Tags and fused reporters may be left off the sequences shown.

Molecular target: T1, HA-tagged full-length Samd14 (sterile alpha motif domain-containing protein 14) (mouse) (UniProt Q8K070)
T1 sequence: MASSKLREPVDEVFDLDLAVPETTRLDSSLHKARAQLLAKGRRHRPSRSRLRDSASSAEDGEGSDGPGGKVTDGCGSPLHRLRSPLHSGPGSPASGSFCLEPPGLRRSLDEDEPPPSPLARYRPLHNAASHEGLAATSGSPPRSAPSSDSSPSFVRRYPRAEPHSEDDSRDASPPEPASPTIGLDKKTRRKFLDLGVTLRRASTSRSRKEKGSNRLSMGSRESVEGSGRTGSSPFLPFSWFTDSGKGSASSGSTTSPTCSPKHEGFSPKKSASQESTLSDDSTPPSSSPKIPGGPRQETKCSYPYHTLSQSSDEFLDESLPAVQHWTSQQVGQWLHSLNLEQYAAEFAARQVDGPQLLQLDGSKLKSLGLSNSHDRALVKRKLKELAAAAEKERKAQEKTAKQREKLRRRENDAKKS
Test: affinity purification with mass spectrometry; anti-HA agarose beads on lysates (1% NP-40 lysis buffer) of GFP-sorted G1E-ΔEnh cells expressing HA-Samd14 or empty vector; LC-MS/MS, N=3

binding	Substance
binds	Capzβ (F-actin capping protein β subunit), endogenous in G1E cells (from UniProt P47757 1-277)
binds	Capzα2 (F-actin capping protein α2 subunit), endogenous in G1E cells (from UniProt P47754 1-286)
